Binding data for two substances are collected here from publication PMC11337767.

Amino acid sequences for entries named in this document (tags omitted). A change or cut given only in a name is not applied to a line headed by its entry.
UniProt P56747: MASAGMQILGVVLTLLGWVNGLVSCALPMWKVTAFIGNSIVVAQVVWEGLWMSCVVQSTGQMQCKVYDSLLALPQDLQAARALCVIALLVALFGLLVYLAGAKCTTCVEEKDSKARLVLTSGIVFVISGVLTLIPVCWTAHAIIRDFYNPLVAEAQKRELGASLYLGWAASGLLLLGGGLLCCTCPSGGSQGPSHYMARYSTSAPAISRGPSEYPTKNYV
UniProt Q13887: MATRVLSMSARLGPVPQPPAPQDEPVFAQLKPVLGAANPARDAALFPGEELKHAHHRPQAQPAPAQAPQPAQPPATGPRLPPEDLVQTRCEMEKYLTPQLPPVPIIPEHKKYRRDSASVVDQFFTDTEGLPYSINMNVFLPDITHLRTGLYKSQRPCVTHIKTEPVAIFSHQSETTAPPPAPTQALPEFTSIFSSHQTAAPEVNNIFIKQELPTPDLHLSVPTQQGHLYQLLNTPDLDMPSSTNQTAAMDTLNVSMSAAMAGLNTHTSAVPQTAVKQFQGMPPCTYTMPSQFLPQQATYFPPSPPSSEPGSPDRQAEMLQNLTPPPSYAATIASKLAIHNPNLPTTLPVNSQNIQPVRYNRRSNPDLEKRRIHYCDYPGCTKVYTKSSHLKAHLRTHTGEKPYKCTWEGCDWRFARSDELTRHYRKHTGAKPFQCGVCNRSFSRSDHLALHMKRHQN
UniProt Q86UL8: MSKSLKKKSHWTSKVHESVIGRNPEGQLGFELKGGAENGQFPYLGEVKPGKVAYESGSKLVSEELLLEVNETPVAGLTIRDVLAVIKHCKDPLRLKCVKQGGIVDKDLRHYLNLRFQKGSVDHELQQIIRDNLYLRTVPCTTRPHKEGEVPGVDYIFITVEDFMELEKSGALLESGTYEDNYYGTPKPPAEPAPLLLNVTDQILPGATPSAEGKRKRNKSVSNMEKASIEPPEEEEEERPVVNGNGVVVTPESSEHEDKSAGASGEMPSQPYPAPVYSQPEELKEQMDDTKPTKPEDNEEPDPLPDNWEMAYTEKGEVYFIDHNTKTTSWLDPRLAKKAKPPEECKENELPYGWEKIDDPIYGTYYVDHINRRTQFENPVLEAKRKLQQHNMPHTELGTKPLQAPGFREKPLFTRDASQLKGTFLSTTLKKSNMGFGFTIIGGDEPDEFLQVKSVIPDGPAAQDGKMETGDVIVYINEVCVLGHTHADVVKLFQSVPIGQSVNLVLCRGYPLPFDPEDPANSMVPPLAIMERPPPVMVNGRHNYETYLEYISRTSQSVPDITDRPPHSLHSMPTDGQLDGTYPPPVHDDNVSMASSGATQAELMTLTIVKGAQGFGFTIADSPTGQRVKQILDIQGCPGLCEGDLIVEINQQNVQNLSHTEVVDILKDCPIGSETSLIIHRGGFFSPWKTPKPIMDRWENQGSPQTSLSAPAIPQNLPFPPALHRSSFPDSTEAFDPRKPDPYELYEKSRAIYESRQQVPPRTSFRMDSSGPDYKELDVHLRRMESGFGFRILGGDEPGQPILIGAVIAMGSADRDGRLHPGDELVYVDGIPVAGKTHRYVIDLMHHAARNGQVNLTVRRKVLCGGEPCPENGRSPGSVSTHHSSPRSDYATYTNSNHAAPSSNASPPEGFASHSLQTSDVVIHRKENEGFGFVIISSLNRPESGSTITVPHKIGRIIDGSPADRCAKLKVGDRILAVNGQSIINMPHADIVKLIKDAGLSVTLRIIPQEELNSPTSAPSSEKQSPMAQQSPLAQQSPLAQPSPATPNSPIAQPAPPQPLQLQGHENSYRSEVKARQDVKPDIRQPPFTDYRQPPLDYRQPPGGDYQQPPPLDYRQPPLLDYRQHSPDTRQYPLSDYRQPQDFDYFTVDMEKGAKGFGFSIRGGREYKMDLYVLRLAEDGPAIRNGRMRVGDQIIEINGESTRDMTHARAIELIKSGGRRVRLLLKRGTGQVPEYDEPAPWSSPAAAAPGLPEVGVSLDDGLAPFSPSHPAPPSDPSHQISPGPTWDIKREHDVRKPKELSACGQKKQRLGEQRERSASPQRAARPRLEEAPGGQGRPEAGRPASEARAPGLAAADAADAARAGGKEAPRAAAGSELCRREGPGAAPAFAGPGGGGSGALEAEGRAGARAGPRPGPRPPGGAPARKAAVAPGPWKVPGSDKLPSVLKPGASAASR

These are yes or no findings as the source states them, for the method shown. In cells and extracts the contact can be indirect.

The assay deals with CLDN6^δPBM (PBM mutant of CLDN6) (UniProt P56747). Kind of assay: co-IP; MDA-MB-231/CLDN6 cells and MDA-MB-231/CLDN6^δPBM cells.

For KLF5 (from UniProt Q13887 1-457), the binding result is “no binding”.
As for MAGI2 (from UniProt Q86UL8 1-1455), the binding result is “no binding”.
